Test results: paper PMC2843672
These are yes or no findings as the source states them, for the method shown. Binding seen in cells or lysates may run through a third protein. Some entries that bind do so weakly or less than the wild type.

Sequences of proteins named here, by UniProt entry; tags and fusion partners are left off.
UniProt P49841: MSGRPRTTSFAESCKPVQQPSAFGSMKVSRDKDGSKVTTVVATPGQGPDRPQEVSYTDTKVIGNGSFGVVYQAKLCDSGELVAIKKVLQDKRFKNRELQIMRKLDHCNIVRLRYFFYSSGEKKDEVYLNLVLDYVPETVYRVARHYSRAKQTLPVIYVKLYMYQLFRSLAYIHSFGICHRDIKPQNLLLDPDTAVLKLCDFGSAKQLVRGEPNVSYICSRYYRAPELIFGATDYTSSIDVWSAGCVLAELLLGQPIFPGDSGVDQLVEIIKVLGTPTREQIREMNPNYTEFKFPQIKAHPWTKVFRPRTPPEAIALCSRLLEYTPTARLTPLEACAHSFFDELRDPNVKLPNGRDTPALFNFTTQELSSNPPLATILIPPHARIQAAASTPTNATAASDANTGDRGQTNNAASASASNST

Target: Glycogen synthase kinase 3β (GSK-3β), wild type (UniProt P49841)
Experiment: co-IP; HeLa cells transfected with GSK-3β WT plasmid, harvested after 24 h; clear lysate incubated overnight at 4°C with rabbit anti-GSK-3β antibody (or normal goat IgG), protein A-sepharose beads, five washes with lysis buffer; immunoblot with antibody to PMS2

- binding: binds
B1: Mismatch repair protein PMS2 (protein, UniProt P54278 1-862)
chain: MERAESSSTEPAKAIKPIDRKSVHQICSGQVVLSLSTAVKELVENSLDAGATNIDLKLKDYGVDLIEVSDNGCGVEEENFEGLTLKHHTSKIQEFADLTQVETFGFRGEALSSLCALSDVTISTCHASAKVGTRLMFDHNGKIIQKTPYPRPRGTTVSVQQLFSTLPVRHKEFQRNIKKEYAKMVQVLHAYCIISAGIRVSCTNQLGQGKRQPVVCTGGSPSIKENIGSVFGQKQLQSLIPFVQLPPSDSVCEEYGLSCSDALHNLFYISGFISQCTHGVGRSSTDRQFFFINRRPCDPAKVCRLVNEVYHMYNRHQYPFVVLNISVDSECVDINVTPDKRQILLQEEKLLLAVLKTSLIGMFDSDVNKLNVSQQPLLDVEGNLIKMHAADLEKPMVEKQDQSPSLRTGEEKKDVSISRLREAFSLRHTTENKPHSPKTPEPRRSPLGQKRGMLSSSTSGAISDKGVLRPQKEAVSSSHGPSDPTDRAEVEKDSGHGSTSVDSEGFSIPDTGSHCSSEYAASSPGDRGSQEHVDSQEKAPKTDDSFSDVDCHSNQEDTGCKFRVLPQPTNLATPNTKRFKKEEILSSSDICQKLVNTQDMSASQVDVAVKINKKVVPLDFSMSSLAKRIKQLHHEAQQSEGEQNYRKFRAKICPGENQAAEDELRKEISKTMFAEMEIIGQFNLGFIITKLNEDIFIVDQHATDEKYNFEMLQQHTVLQGQRLIAPQTLNLTAVNEAVLIENLEIFRKNGFDFVIDENAPVTERAKLISLPTSKNWTFGPQDVDELIFMLSDSPGVMCRPSRVKQMFASRACRKSVMIGTALNTSEMKKLITHMGEMDHPWNCPHGRPTMRHIANLGVISQN
